Data on 1 substance can be found in US7608242B2 (GE Healthcare Limited, priority 2001, dated 2009).

Some peptides are written in HELM: one residue between dots, names in brackets for other building blocks, links after the first $.

The nature of the data set: general procedure: Fmoc solid-phase peptide synthesis; Fmoc-Tyr(tBu)-SASRIN. The settings on record: TFA salt; for final HPLC purity: oxidative folding step.

As for “PEPTIDE1{[CA1-Succ].C.C.E.L.C.C.N.P.A.C.A.G.C.Y}$PEPTIDE1,PEPTIDE1,2:R3-7:R3|PEPTIDE1,PEPTIDE1,3:R3-11:R3|PEPTIDE1,PEPTIDE1,6:R3-14:R3$$$V2.0”, the “final HPLC purity” value was over 98%. Besides, the “final HPLC purity” value (exchanged to acetate salt) is on record as over 80%. In addition, the “crude HPLC purity” value (whole synthesis, scale of the general procedure 10 g polymer, 0.6 mmol/g loading, exchanged to acetate salt) is recorded as “around 70%”.
